According to publication PMC9683845:
Results are given in words; binding and its absence hold for the method and conditions named. In cells and extracts the contact can be indirect. Some results given as binding are weak or reduced against the parent protein; the word gives no strength.

By UniProt entry, the sequences of proteins in these tests, tags left out. Where a name states a change or a piece, a line headed by the entry shows the natural chain unless it says otherwise.
UniProt P35222: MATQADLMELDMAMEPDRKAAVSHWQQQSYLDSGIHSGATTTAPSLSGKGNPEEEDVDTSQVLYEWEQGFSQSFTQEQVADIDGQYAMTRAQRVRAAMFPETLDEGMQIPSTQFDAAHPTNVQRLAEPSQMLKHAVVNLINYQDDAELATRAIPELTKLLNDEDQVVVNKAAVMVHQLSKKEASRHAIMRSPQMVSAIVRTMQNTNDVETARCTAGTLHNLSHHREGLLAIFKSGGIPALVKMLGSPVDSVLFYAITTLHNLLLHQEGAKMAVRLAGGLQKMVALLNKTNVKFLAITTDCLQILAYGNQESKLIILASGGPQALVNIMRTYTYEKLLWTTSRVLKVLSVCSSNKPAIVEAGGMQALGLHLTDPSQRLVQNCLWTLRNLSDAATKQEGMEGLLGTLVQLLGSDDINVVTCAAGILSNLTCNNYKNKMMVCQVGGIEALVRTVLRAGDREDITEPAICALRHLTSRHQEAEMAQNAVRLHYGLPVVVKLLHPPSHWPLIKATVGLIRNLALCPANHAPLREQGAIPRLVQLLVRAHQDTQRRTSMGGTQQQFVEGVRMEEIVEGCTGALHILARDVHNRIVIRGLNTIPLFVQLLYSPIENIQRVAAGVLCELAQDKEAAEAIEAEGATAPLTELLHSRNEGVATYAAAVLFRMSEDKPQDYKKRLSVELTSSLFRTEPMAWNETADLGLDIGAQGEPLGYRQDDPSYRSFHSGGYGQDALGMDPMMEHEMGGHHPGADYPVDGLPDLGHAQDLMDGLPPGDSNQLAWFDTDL

What was measured:
[1] = molecular target: T1, SATB1 (UniProt Q01826); test: co-IP; HEK 293T cells overexpressing VP-16 fused regions of β-catenin; anti-SATB1, WB with anti-β-catenin
T1 sequence: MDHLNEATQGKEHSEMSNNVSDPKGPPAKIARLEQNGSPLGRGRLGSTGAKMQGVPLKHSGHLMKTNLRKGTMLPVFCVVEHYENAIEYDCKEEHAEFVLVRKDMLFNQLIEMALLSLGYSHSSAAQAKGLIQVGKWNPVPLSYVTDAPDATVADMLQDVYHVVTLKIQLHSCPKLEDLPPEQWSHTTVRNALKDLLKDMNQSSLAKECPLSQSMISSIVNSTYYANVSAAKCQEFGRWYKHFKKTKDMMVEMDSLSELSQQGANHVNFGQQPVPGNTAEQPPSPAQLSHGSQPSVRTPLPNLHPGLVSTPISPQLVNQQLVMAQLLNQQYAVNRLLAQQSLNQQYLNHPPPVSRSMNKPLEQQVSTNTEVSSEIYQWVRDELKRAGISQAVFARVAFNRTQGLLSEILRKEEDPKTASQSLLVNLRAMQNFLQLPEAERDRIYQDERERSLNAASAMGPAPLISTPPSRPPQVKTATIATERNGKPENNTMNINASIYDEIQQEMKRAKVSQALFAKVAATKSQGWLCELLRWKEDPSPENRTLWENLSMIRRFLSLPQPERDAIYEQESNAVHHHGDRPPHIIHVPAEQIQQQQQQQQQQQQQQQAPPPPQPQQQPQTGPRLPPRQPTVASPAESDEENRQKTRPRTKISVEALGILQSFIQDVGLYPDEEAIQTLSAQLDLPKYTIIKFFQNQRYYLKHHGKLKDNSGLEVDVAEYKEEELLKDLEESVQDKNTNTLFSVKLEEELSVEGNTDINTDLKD

[2] = molecular target: GST-β-catenin (UniProt P35222); test: pull-down; in vitro pulldown; GST-β-catenin or control GST immobilized, incubated with 35S-labeled SATB1; only the target purified

Molecule	binding [1]	binding [2]
VP-16 fused C-terminal region of β-catenin (aa 666–780) (from UniProt P35222 666-780) (domain or fragment)	binds	–
VP-16 fused N-terminal region of β-catenin (aa 1–137) (from UniProt P35222 1-137) (domain or fragment)	no binding	–
35S-labeled SATB1 (protein, UniProt Q01826 1-763, 35S label) MDHLNEATQGKEHSEMSNNVSDPKGPPAKIARLEQNGSPLGRGRLGSTGAKMQGVPLKHSGHLMKTNLRKGTMLPVFCVVEHYENAIEYDCKEEHAEFVLVRKDMLFNQLIEMALLSLGYSHSSAAQAKGLIQVGKWNPVPLSYVTDAPDATVADMLQDVYHVVTLKIQLHSCPKLEDLPPEQWSHTTVRNALKDLLKDMNQSSLAKECPLSQSMISSIVNSTYYANVSAAKCQEFGRWYKHFKKTKDMMVEMDSLSELSQQGANHVNFGQQPVPGNTAEQPPSPAQLSHGSQPSVRTPLPNLHPGLVSTPISPQLVNQQLVMAQLLNQQYAVNRLLAQQSLNQQYLNHPPPVSRSMNKPLEQQVSTNTEVSSEIYQWVRDELKRAGISQAVFARVAFNRTQGLLSEILRKEEDPKTASQSLLVNLRAMQNFLQLPEAERDRIYQDERERSLNAASAMGPAPLISTPPSRPPQVKTATIATERNGKPENNTMNINASIYDEIQQEMKRAKVSQALFAKVAATKSQGWLCELLRWKEDPSPENRTLWENLSMIRRFLSLPQPERDAIYEQESNAVHHHGDRPPHIIHVPAEQIQQQQQQQQQQQQQQQAPPPPQPQQQPQTGPRLPPRQPTVASPAESDEENRQKTRPRTKISVEALGILQSFIQDVGLYPDEEAIQTLSAQLDLPKYTIIKFFQNQRYYLKHHGKLKDNSGLEVDVAEYKEEELLKDLEESVQDKNTNTLFSVKLEEELSVEGNTDINTDLKD	–	binds
